Results are given in words; binding and its absence hold for the method and conditions named. Binding seen in cells or lysates may run through a third protein. Some binding calls cover weakened binding; strength is not graded here.
How the values were obtained:
FLAG-Smad2 (wildtype) = FLAG-Smad2 (wildtype) (UniProt Q15796); assay: co-IP; FLAG-Smad2 and HA-PIAS plasmids transfected into HEK293T; IP with anti-FLAG from cell lysates, IB with anti-HA; overnight at 4 °C, protein A/G agarose
[1] = target: FLAG-Smad2 K156R/K383R (double SUMOylation site mutant) (UniProt Q15796); assay: co-IP; wildtype or SUMO site mutant FLAG-Smad2, with or without SUMO1 overexpression, in HEK293T; IP with anti-FLAG from cell lysates, IB with anti-Smad4; overnight at 4 °C, protein A/G agarose

The chains behind the UniProt entries cited, without tags or fusion partners. Where a name states a change or a piece, a line headed by the entry shows the natural chain unless it says otherwise. A line that says so, or that is headed by a name, gives the form on record, which may keep a tag or linker.
UniProt Q15796: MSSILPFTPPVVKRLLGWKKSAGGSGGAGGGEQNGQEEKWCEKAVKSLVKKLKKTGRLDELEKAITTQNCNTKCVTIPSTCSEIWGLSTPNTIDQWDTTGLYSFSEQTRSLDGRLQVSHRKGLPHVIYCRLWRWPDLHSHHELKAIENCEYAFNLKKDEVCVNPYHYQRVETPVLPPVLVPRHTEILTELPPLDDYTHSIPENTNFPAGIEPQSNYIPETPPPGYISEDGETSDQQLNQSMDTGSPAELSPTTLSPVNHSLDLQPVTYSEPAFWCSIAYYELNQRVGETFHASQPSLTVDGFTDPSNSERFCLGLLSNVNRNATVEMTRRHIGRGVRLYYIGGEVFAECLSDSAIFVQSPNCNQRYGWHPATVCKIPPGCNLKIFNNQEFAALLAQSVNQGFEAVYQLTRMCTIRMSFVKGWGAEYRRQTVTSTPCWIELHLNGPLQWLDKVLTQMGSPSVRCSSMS
HA-PIAS2α (O75928-2, form named): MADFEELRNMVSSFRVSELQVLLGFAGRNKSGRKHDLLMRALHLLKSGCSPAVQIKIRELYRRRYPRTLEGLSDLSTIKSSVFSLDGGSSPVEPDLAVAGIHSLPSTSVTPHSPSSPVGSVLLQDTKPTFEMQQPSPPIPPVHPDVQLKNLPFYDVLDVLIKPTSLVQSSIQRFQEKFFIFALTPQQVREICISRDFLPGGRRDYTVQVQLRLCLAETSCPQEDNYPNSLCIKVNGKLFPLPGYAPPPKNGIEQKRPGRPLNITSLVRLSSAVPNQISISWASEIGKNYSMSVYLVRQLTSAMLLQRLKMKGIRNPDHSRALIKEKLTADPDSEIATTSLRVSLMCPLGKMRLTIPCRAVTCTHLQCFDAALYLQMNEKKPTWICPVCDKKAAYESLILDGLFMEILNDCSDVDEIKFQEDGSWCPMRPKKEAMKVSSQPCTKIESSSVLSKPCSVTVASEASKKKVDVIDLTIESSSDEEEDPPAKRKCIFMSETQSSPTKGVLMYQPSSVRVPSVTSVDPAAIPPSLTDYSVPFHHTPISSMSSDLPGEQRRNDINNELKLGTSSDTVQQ
UniProt Q13485: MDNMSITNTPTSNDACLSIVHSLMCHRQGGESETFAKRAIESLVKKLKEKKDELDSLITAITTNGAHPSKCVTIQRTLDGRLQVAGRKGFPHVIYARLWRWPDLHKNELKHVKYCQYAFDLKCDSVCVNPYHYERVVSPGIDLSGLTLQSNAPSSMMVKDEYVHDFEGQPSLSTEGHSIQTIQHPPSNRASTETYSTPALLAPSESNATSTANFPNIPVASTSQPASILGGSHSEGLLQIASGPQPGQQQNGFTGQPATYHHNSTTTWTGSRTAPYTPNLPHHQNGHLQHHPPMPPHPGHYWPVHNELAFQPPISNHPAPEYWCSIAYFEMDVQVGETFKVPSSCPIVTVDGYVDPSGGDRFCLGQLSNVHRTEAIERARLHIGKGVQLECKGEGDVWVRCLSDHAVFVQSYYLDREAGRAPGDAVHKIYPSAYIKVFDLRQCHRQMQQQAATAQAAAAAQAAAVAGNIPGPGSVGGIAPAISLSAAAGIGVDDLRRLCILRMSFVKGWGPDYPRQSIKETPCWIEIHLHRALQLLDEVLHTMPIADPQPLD

Substance	binding (FLAG-Smad2 (wildtype))	binding [1]
HA-PIAS2α (from UniProt O75928-2 1-572) (enzyme)	binds	–
Smad4 (from UniProt Q13485 1-552)	–	binds

Source: paper PMC10570702
